Source: PubChem BioAssay AID1259284 (Sanger Institute, 2017)
The deposit covers 794 reagents; this is an unselected part. 16 of them (2%) count as active. 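Calls concern knock-down without drug only; drug synergy was judged apart, with scores above 0.15 taken as synergy.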 Unmarked entries are inactive. Further read-outs or replicates are left out here. The record does not give: the amount of reagent, the time to read-out.

- Assay: 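siRNA screen across the kinome seeking partners for BYL719, cetuximab or trametinib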 (primary screen)
- Cells: SW48 human colorectal cancer cells
- Reagent: siRNA pool against human genes
- Challenge: anchor drug BYL719 at 1 µM, cetuximab at 5 µg/ml or trametinib at 10 nM, or DMSO vehicle alone
- Detection: 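Cell viability relative to non-targeting pool wells, replicate mean, with robust z-scores and drug synergy scores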
- Direction: robust z-score, no drug: higher = more cells survive knock-down
- Active means: 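a knock-down is essential if viability without drug gives a robust z-score under -3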
- Calls: active = essential without drug; inactive = no change without drug

For GNAS the deposit lists robust z-score, no drug -1.84.
Knock-down of RNASEL gave: robust z-score, no drug 0.426.
CHD9 scored robust z-score, no drug -0.941.
For CLK4, the values are robust z-score, no drug 0.426.
After knock-down of INSR, the screen gave robust z-score, no drug 0.426.
For PIP5K1C, the values are robust z-score, no drug 0.426.
CDC42BPG scored robust z-score, no drug 0.426.
Depletion of CDK5R1 came out at: robust z-score, no drug 0.426.
Against PTK7 the deposit lists robust z-score, no drug -0.879.
Against ZAP70, the values are robust z-score, no drug 0.426.
With knock-down of CKMT2, the screen gave robust z-score, no drug 0.426.
Silencing of EPHB4 came out at: robust z-score, no drug 0.426.
For MAP2K5, the entry reads robust z-score, no drug 0.426.
For CDC42BPB, the values are robust z-score, no drug 0.426.
For NUP98, the values are robust z-score, no drug 0.0401.
CAMKK1 gave robust z-score, no drug 0.426.
Silencing of PRKAR2A came out at: robust z-score, no drug 0.426.
With knock-down of PIP4K2B, the screen gave robust z-score, no drug 0.426.
Knock-down of AKT2 gave: robust z-score, no drug -0.28.

In a second layout: 2 of the entries above
gene knocked down,"robust z-score, no drug"
CDC42BPG,0.426
CDK5R1,0.426
